Source: PubChem BioAssay AID1259275 (Sanger Institute, 2017)
Shown is one part, drawn at random, of 794 reagents. Over the whole deposit, 13 (1.6%) are marked active. 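Calls mark knock-downs lethal by themselves, not drug synergy; drugs went in a day after transfection, with DMSO as vehicle.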 A number with no mark means an inactive call. No viability above 1 is reported: the scale is capped. Not all columns of the deposit are shown. Not given: the amount of reagent, the time to read-out.

- Screen: 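Kinome and custom colorectal gene library screened for lethal knock-downs and drug partners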 (primary screen)
- Cells: COLO320HSR human colorectal cancer cells
- Reagents: siRNA pool against human genes
- Conditions: anchor drug added one day after transfection: BYL719 at 1 µM, cetuximab at 5 µg/ml or trametinib at 10 nM; DMSO as vehicle arm
- Measurement: 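Replicate-mean viability versus non-targeting pool control, robust z-score without drug, and per-drug synergy scores for BYL719 at 1 µM, cetuximab at 5 µg/ml and trametinib at 10 nM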
- Reading the numbers: robust z-score, siRNA alone: higher = more viable cells; strongly negative means essential; viability, knock-down alone (DMSO): higher = more viable cells
- Units: viability, knock-down alone (DMSO) in fraction of control
- Call rule: 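Essential means the knock-down by itself gives a robust z-score lower than -3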
- Meaning of the calls: active = essential (siRNA alone); inactive = no change (siRNA alone)

Against CDK7 (cyclin dependent kinase 7), the values are robust z-score, siRNA alone 0.726; viability, knock-down alone (DMSO) = 1. Against DAPK1 (death associated protein kinase 1), the entry reads robust z-score, siRNA alone 0.726; viability, knock-down alone (DMSO) = 1. Silencing of PHKB (phosphorylase kinase regulatory subunit beta) resulted in: robust z-score, siRNA alone -0.13; viability, knock-down alone (DMSO) = 0.923. PDK3 (pyruvate dehydrogenase kinase 3) showed robust z-score, siRNA alone 0.683; viability, knock-down alone (DMSO) = 0.996. With knock-down of PDPK1 (3-phosphoinositide dependent protein kinase 1), the screen gave robust z-score, siRNA alone -0.432; viability, knock-down alone (DMSO) = 0.895. NEK3 (NIMA related kinase 3) gave robust z-score, siRNA alone -0.104; viability, knock-down alone (DMSO) = 0.925.

For GTF2H1 (general transcription factor IIH subunit 1), the entry reads robust z-score, siRNA alone 0.726; viability, knock-down alone (DMSO) = 1. Depletion of FOXP1 (forkhead box P1) came out at: robust z-score, siRNA alone -2.26; viability, knock-down alone (DMSO) = 0.731. PRKAG1 (protein kinase AMP-activated non-catalytic subunit gamma 1) gave robust z-score, siRNA alone 0.726; viability, knock-down alone (DMSO) = 1. Knock-down of SHPK (sedoheptulokinase) came out at: robust z-score, siRNA alone 0.637; viability, knock-down alone (DMSO) = 0.992. After knock-down of TNK2 (tyrosine kinase non receptor 2), the record shows robust z-score, siRNA alone 0.726; viability, knock-down alone (DMSO) = 1.

Copied from above for reference:
PDK3 (pyruvate dehydrogenase kinase 3) | robust z-score, siRNA alone: 0.683; viability, knock-down alone (DMSO): 0.996
PDPK1 (3-phosphoinositide dependent protein kinase 1) | robust z-score, siRNA alone: -0.432; viability, knock-down alone (DMSO): 0.895
NEK3 (NIMA related kinase 3) | robust z-score, siRNA alone: -0.104; viability, knock-down alone (DMSO): 0.925

Continued:
Against CDK18 (cyclin dependent kinase 18) the deposit lists robust z-score, siRNA alone -1.8; viability, knock-down alone (DMSO) = 0.772. Against PNCK (pregnancy up-regulated nonubiquitous CaM kinase), the entry reads robust z-score, siRNA alone -0.504; viability, knock-down alone (DMSO) = 0.889. Knock-down of MTOR (mechanistic target of rapamycin kinase) came out at: robust z-score, siRNA alone 0.222; viability, knock-down alone (DMSO) = 0.954. With knock-down of ITPKC (inositol-trisphosphate 3-kinase C), the screen gave robust z-score, siRNA alone 0.287; viability, knock-down alone (DMSO) = 0.96. For PAK6 (p21 (RAC1) activated kinase 6), the values are robust z-score, siRNA alone 0.726; viability, knock-down alone (DMSO) = 1. Against RELA (RELA proto-oncogene, NF-kB subunit), the entry reads robust z-score, siRNA alone 0.0121; viability, knock-down alone (DMSO) = 0.936.

For PASK (PAS domain containing serine/threonine kinase), the values are robust z-score, siRNA alone -1.04; viability, knock-down alone (DMSO) = 0.84. Against ITPKB (inositol-trisphosphate 3-kinase B), the values are robust z-score, siRNA alone 0.411; viability, knock-down alone (DMSO) = 0.971. CDKN2B (cyclin dependent kinase inhibitor 2B) showed robust z-score, siRNA alone 0.0194; viability, knock-down alone (DMSO) = 0.936. EPHA2 (EPH receptor A2) showed robust z-score, siRNA alone 0.726; viability, knock-down alone (DMSO) = 1. LIMK1 (LIM domain kinase 1) scored robust z-score, siRNA alone 0.254; viability, knock-down alone (DMSO) = 0.957. Against RBM10 (RNA binding motif protein 10), the values are robust z-score, siRNA alone -0.159; viability, knock-down alone (DMSO) = 0.92.

PIM3 (Pim-3 proto-oncogene, serine/threonine kinase) showed robust z-score, siRNA alone 0.618; viability, knock-down alone (DMSO) = 0.99. WT1 (WT1 transcription factor) showed robust z-score, siRNA alone 0.473; viability, knock-down alone (DMSO) = 0.977. LATS1 (large tumor suppressor kinase 1) showed robust z-score, siRNA alone 0.277; viability, knock-down alone (DMSO) = 0.959. Silencing of PRKCH (protein kinase C eta) came out at: robust z-score, siRNA alone 0.726; viability, knock-down alone (DMSO) = 1. CDK12 (cyclin dependent kinase 12) showed robust z-score, siRNA alone -0.3; viability, knock-down alone (DMSO) = 0.907.
